The results in this text go back to patent EP0467433 (dated 1992).

The nature of this data set: general procedure: solution-phase peptide synthesis; azide coupling (isoamyl nitrite/HCl); ONp active esters.

“Boc-Met02-Glu(OtBu)-His-Phe-D-Lys(Boc)-Phe-OC10H21” had a step yield of 91.7%.
